According to patent US20040241114A1, “Hair Care and Nail Care Compositions Based on Ion-Pair Delivery System for Gender and Ethnic Selective Applications” (priority 2003, published 2004):

Key:
[1] = Hair deposition evaluation (ninhydrin, spectroscopic measurement); design: species or system human; conditions: hair soaked one hour in solution, rinsed with distilled water; average of hair from 10 individuals (five male, five female)
Excerpt: Human hair (about 10 cm long) was obtained from 10 individuals (five male and five female) from the barbershops. It was washed with water and air dried. Portions of these hair samples were soaked for one hour in (1) distilled water, (2) in a solution obtained from Example 1, and (3) in a solution obtained from Example 2.
These hair swatches were then removed and rinsed with distilled water. These hair swatches were then immersed in a 1% solution of sodium hydroxide. The hair swatches were then removed, and the sodium hydroxide solution was first heated at 70 to 80 C. for 1 hour to deacetylate N-acetyl-cysteine, then neutralized with hydrochloric acid to pH 5.5 and reacted with ninhydrin reagent solution. The blue color was obtained in samples from (2) and (3) above. […] The deposition of N-acetyl-cysteine from sample (3) was at least 10%.

[2] = Hair conditioning / antioxidant benefit of ion-pair derivatives; conditions: ion-pair formed from stearalkonium chloride
Excerpt: Most hair and nail beneficial sulfur compounds mentioned above, such as cysteine, cystine, N-acetyl-cysteine, biotin, glutathione, and such, are water soluble. These ingredients are not easily deposited in any appreciable or beneficial amounts from rinse-off compositions such as shampoo or conditioner. The combination of such water soluble ingredients with another hair or nail beneficial composition that is known to be deposited on hair and nails (by the attractive forces of cationic and anionic electrical charges) in significant amounts from aforementioned rinse-off products has provided a new method for the deposition of such water soluble ingredients in the present invention. This is both surprising and unexpected because such combination of cationic and anionic compositions usually renders both of such combining compositions ineffective due to the self-neutralization of their positive and negative charges.

Row | Molecule | N-acetyl-cysteine deposited on hair [1] | hair conditioning benefit [2]
1 | CC(=O)N[C@@H](CS)C(=O)[O-].[Na+] [sample (2), Sodium N-Acetyl-Cysteinate] | about 1% | 
2 | CC(=O)NC(CS)C(=O)[O-].C[N+](C)(C)CCCNC(=O)C=Cc1ccccc1 [sample (3), Cinnamidopropyltrimonium N-Acetyl-Cysteinate] | at least 10% | 
3 | stearalkonium cocoate |  | does not have any hair conditioning benefits at all
